Test results: US20110039770A1, “INHIBITORS OF PROTEIN KINASE C ISOFORMS AND USES THEREOF” (PHARMAGAP INC., priority 2005, published 2011)
Like-named read-outs stand apart in the source and are kept apart here. Where a SMILES comes first, the peptide text is derived from it.

Tested on: IMR-32 neuroblastoma cells
Type: cell-based, human
[1] = 2.5 mg/ml, 24 h, pinocytic endocytosis reagent
[2] = 2.5 mg/ml, 48 h, pinocytic endocytosis reagent
[3] = 2.5 mg/ml, 72 h, pinocytic endocytosis reagent
[4] = 10 mg/ml, 24 h, pinocytic endocytosis reagent
[5] = 10 mg/ml, 48 h, pinocytic endocytosis reagent
[6] = 10 mg/ml, 72 h, pinocytic endocytosis reagent

Compound	AFI (Average Fluorescence Intensity) [1]	AFI (Average Fluorescence Intensity) [2]	AFI (Average Fluorescence Intensity) [3]	AFI (Average Fluorescence Intensity) [4]	AFI (Average Fluorescence Intensity) [5]	AFI (Average Fluorescence Intensity) [6]	AFI (Average Fluorescence Intensity) (62.5 μg/ml, 24 h)	AFI (Average Fluorescence Intensity) (62.5 μg/ml, 48 h)	AFI (Average Fluorescence Intensity) (62.5 μg/ml, 72 h)	AFI (Average Fluorescence Intensity) (125 μg/ml, 24 h)	AFI (Average Fluorescence Intensity) (125 μg/ml, 48 h)	AFI (Average Fluorescence Intensity) (125 μg/ml, 72 h)	AFI (Average Fluorescence Intensity) (250 μg/ml, 24 h)	AFI (Average Fluorescence Intensity) (250 μg/ml, 48 h)	AFI (Average Fluorescence Intensity) (250 μg/ml, 72 h)	AFI (Average Fluorescence Intensity) (500 μg/ml, 24 h)	AFI (Average Fluorescence Intensity) (500 μg/ml, 48 h)	AFI (Average Fluorescence Intensity) (500 μg/ml, 72 h)
CC[C@H](C)[C@H](NC(=O)[C@H](CO)NC(=O)[C@@H](NC(=O)CNC(=O)[C@@H](NC(=O)[C@H](CC(C)C)NC(=O)[C@H](CC(N)=O)NC(=O)[C@H](CCC(N)=O)NC(=O)[C@H](C)NC(=O)[C@H](CC(=O)O)NC(=O)CNC(=O)CNC(=O)[C@H](CCCCN)NC(=O)[C@@H](NC(=O)[C@H](CCC(=O)O)NC(=O)[C@H](CCC(N)=O)NC(=O)[C@@H](NC(=O)CNC(=O)[C@H](CCCCN)NC(=O)[C@H](C)NC(C)=O)[C@@H](C)CC)C(C)C)[C@@H](C)CC)[C@@H](C)CC)C(N)=O [PRE 3] (Ac-AKGIQEVKGGDAQNLIGISI-NH2)	193	389	871	182	334	830	–	–	–	–	–	–	–	–	–	–	–	–
CC[C@H](C)[C@H](NC(=O)[C@H](CO)NC(=O)[C@@H](NC(=O)CNC(=O)[C@@H](NC(=O)[C@H](CC(C)C)NC(=O)[C@H](CC(N)=O)NC(=O)[C@H](CCC(N)=O)NC(=O)[C@H](C)NC(=O)[C@H](CC(=O)O)NC(=O)[C@H](CCCCN)NC(C)=O)[C@@H](C)CC)[C@@H](C)CC)C(N)=O [PRE 4, Ac-KDAQNLIGISI-NH2] (Ac-KDAQNLIGISI-NH2)	179	240	777	173	247	809	–	–	–	–	–	–	–	–	–	–	–	–
CC[C@H](C)[C@H](NC(=O)[C@H](CO)NC(=O)[C@@H](NC(=O)CNC(=O)[C@@H](NC(=O)[C@H](CC(C)C)NC(=O)[C@H](CC(N)=O)NC(=O)[C@H](CCC(N)=O)NC(=O)[C@H](C)NC(=O)[C@H](CC(=O)O)NC(=O)[C@H](CCCCN)NC(=O)CNC(=O)CNC(=O)[C@H](CCCCN)NC(=O)[C@@H](NC(=O)[C@H](CCC(=O)O)NC(=O)[C@H](CCC(N)=O)NC(=O)[C@@H](NC(=O)CNC(=O)[C@H](CCCCN)NC(=O)[C@H](C)NC(C)=O)[C@@H](C)CC)C(C)C)[C@@H](C)CC)[C@@H](C)CC)C(N)=O [PRE 5] (Ac-AKGIQEVKGGKDAQNLIGISI-NH2)	–	–	–	–	–	–	717	1084	1290	593	991	1200	557	899	1150	492	891	1082
